According to US9901617B2, “Cell permeable inhibitors of the scaffold protein plenty of SH3 domains (POSH) or Sh3Rfl” (The Curators of the University of Missouri, priority 2013, dated 2018):
For part of these data: At least one peptide structure holds a part that was inferred or is arguable (an end, a ring closure or a residue). For part of these data: For at least one compound, name, drawing or mass did not settle the structure. No end group written: not given here.

Sequences of proteins named here, by UniProt entry; tags and fusion partners are left off. A change or cut given only in a name is not applied to a line headed by its entry.
UniProt Q9WVI9: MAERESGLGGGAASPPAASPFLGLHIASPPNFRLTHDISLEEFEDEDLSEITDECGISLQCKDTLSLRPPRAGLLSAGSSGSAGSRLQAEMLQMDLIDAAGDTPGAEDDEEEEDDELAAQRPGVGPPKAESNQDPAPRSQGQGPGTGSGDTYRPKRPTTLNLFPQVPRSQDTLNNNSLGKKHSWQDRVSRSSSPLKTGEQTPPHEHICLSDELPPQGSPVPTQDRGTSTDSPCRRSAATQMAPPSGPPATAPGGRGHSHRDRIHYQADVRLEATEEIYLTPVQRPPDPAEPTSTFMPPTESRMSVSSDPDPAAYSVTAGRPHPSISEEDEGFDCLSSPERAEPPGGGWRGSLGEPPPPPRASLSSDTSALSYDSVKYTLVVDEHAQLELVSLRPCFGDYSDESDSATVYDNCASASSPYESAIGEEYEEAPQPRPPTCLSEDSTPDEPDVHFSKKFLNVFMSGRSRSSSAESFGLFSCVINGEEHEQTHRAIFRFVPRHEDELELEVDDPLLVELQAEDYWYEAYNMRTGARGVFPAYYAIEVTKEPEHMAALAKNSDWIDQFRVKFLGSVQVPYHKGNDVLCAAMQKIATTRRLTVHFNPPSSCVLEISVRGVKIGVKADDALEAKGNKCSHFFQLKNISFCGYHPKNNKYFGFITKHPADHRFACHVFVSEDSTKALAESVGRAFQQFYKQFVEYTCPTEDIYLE

Tests used:
[1] = tested on: T-bet; assay: Transcription factor expression in OT-I T cells, T-bet; assay type: cell-based; settings: in the presence of SP600125, 24 and 48 hours
[2] = target: T1, POSH/JIP-1 complex (Mus musculus, UniProt Q9WVI9); assay: IP-FCM mapping of the POSH/JIP-1 scaffold complex in stimulated OT-I T cells; assay type: cell-based; settings: in the presence of Tat-POSH
T1 construct: endogenous in cells; host or cells: OT-I CD8+ T cells (primary, TCR transgenic)

| Molecule | levels of T-bet induced, relative to Tat-POSH treated cells [1] | JNK1 in Co-IP with JIP-1 [2] | MKK7 in Co-IP with JIP-1 [2] | MLK-3 in Co-IP with POSH [2] | Rac-1 in Co-IP with POSH [2] | Tak1 in Co-IP with POSH [2] |
| --- | --- | --- | --- | --- | --- | --- |
| Oc1c2ccccc2c2c3c(cccc13)N=N2 [SP600125, reference compound] | comparable | – | – | – | – | – |
| GRKKRRQRRRPPRKEDELELRKGEMFLVFER [Tat-POSH SH3.3] | – | not affected | not affected | not significantly reduced | not significantly reduced | not significantly reduced |
